Reference: publication PMC7492734

Sequences of proteins named here, by UniProt entry; tags and fusion partners are left off. A change or cut given only in a name is not applied to a line headed by its entry. Residues count along the entry.
UniProt P05187: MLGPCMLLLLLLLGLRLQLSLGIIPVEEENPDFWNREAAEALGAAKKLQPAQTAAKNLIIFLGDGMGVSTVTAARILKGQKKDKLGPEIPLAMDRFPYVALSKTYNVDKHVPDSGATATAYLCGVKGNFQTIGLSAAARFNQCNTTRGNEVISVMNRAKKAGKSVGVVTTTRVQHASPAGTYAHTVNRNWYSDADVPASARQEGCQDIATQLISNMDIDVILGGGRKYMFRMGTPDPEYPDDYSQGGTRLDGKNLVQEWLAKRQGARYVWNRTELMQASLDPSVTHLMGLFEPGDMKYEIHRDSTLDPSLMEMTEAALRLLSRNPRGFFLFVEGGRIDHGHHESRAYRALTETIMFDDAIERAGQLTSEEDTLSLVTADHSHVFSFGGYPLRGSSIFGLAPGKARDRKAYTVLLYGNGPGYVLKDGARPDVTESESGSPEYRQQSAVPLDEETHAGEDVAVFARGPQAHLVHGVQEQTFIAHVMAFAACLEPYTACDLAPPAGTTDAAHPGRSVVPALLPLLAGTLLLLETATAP
UniProt P11021, residues 19-654: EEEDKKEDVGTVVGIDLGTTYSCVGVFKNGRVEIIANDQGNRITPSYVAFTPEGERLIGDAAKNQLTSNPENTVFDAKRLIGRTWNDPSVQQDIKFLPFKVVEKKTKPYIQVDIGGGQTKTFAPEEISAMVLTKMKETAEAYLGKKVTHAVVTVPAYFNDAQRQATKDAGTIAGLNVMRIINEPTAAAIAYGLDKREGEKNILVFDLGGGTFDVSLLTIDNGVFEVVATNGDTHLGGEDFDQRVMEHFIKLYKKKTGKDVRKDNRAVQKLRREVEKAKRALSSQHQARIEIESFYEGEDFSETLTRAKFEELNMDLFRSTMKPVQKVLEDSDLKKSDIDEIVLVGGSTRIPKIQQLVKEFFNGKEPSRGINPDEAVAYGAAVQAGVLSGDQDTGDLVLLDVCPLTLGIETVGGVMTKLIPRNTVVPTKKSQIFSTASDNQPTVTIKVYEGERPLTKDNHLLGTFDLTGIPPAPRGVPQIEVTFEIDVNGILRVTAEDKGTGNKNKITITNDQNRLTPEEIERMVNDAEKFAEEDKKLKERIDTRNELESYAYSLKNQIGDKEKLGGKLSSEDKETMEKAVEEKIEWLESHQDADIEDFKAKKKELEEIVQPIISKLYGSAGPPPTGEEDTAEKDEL

Assays:
[1] = molecular target: C-terminal 2×Flag-tagged placental alkaline phosphatase (ALPP-2×Flag) (human) (UniProt P05187); experiment: co-IP; Flag-ALPP JEG-3 cells and Flag control cells, Flag-ALPP as bait; immunoblot with anti-Flag or anti-BIP
[2] = molecular target: C-terminal 2×Flag-tagged placental alkaline phosphatase (ALPP-2×Flag) (human) (UniProt P05187); experiment: co-IP; Flag-ALPP 293T cells, Flag-ALPP as bait; silver and Coomassie staining
[3] = molecular target: C-terminal 2×Flag-tagged placental alkaline phosphatase (ALPP-2×Flag) (human) (UniProt P05187); experiment: co-IP; U-251 MG cells stably expressing Flag-tagged ALPP, mock infected or infected with ZIKV for 24 h; lysate on anti-Flag M2 affinity gel overnight at 4°C, five washes, eluted with 3×Flag peptide; immunoblot

binding [1]: binds
binding [2]: binds
binding [3]: binds
Substance: BIP (GRP78), endogenous (from UniProt P11021 19-654)

Results are given in words; binding and its absence hold for the method and conditions named. In cells and extracts the contact can be indirect. A result given as binding can be weak or reduced; the word gives no strength.
